{"source": "PubChem BioAssay AID1224826, NIAID, 2016", "purpose": "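Genes that change LPS-induced Tnf promoter activity in mouse macrophages when knocked down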 (primary screen)", "cells": "RAW264.7 G9 macrophages from mouse bearing reporters for p65 (GFP) and the Tnf promoter (mCherry)", "reagent": "siRNA pool against mouse genes, 100 nM", "timing": "16 h of LPS stimulation, after 2 days of siRNA transfection", "treatment": "bacterial lipopolysaccharide (Salmonella minnesota R595), 10 ng/ml", "read-out": "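Imaged Tnf reporter mCherry in nuclei, minus background, normalised per plate to the median and expressed as robust z-scores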", "direction": "Tnf reporter robust z-score: higher = stronger Tnf promoter reporter signal after LPS", "rule for the call": "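a well counts as active at a score of -1.3 or below (Tlr4 knock-down control median) or above 3 (raised signal); controls and wells holding fewer than 50 cells are excluded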", "calls": "active = Tnf reporter clearly lowered or raised; inactive = no clear change in Tnf reporter", "note": "The deposit covers about 17,000 reagents; shown is an unselected part. Of all reagents, about 1,110 (6.6%) are marked active. 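Active means lowered or raised reporter signal; replicate intensities are raw and not normalised per plate.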 Not all columns of the deposit are shown."}
{"target": "Spc25", "Tnf reporter robust z-score": 1.2, "fewer than 50 cells in well": "enough cells in well", "Call": "inactive"}
{"target": "Cdc25a (cell division cycle 25A)", "Tnf reporter robust z-score": -0.13, "fewer than 50 cells in well": "enough cells in well", "Call": "inactive"}
{"target": "Lrrc14 (leucine rich repeat containing 14)", "Tnf reporter robust z-score": 2.62, "fewer than 50 cells in well": "enough cells in well", "Call": "inactive"}
{"target": "Inha (inhibin alpha)", "Tnf reporter robust z-score": -0.38, "fewer than 50 cells in well": "enough cells in well", "Call": "inactive"}
{"target": "Pprc1", "Tnf reporter robust z-score": -0.72, "fewer than 50 cells in well": "enough cells in well", "Call": "inactive"}
{"target": "Ghdc (GH3 domain containing)", "Tnf reporter robust z-score": -0.32, "fewer than 50 cells in well": "enough cells in well", "Call": "inactive"}
{"target": "Cdc42bpg (CDC42 binding protein kinase gamma)", "Tnf reporter robust z-score": 1.78, "fewer than 50 cells in well": "enough cells in well", "Call": "inactive"}

The list goes on, starting with the last 2 of the part before.
{"target": "Ghdc (GH3 domain containing)", "Tnf reporter robust z-score": -0.32, "fewer than 50 cells in well": "enough cells in well", "Call": "inactive"}
{"target": "Cdc42bpg (CDC42 binding protein kinase gamma)", "Tnf reporter robust z-score": 1.78, "fewer than 50 cells in well": "enough cells in well", "Call": "inactive"}
{"target": "Timp2 (tissue inhibitor of metalloproteinase 2)", "Tnf reporter robust z-score": 1.15, "fewer than 50 cells in well": "enough cells in well", "Call": "inactive"}
{"target": "Fam98c (family with sequence similarity 98, member C)", "Tnf reporter robust z-score": 1.05, "fewer than 50 cells in well": "enough cells in well", "Call": "inactive"}
{"target": "Or2n1 (olfactory receptor family 2 subfamily N member 1)", "Tnf reporter robust z-score": 0.16, "fewer than 50 cells in well": "enough cells in well", "Call": "inactive"}
{"target": "Numbl (numb-like)", "Tnf reporter robust z-score": -1.56, "fewer than 50 cells in well": "enough cells in well", "Call": "active"}
{"target": "Ptgis (prostaglandin I2 (prostacyclin) synthase)", "Tnf reporter robust z-score": -0.94, "fewer than 50 cells in well": "enough cells in well", "Call": "inactive"}
